In PubChem BioAssay AID720504 (National Center for Advancing Translational Sciences (NCATS), 2013):
In all, about 360,000 compounds went through this assay and about 10,000 (2.8%) were called active. Inconclusive means that the source gave no clear call. Such entries were picked first, then a sample of the others. Calls follow the shape of the dose curve; as a rule, active = well fitted inhibition curve with a large enough effect; inconclusive = small, poorly fitted or top-dose-only effect; inactive = flat fitted curve, though single readings scatter. Where the call is inconclusive, the potency comes from a doubtful curve fit.

The chains behind the UniProt entries cited, without tags or fusion partners.
UniProt P53350, whole entry, looked up: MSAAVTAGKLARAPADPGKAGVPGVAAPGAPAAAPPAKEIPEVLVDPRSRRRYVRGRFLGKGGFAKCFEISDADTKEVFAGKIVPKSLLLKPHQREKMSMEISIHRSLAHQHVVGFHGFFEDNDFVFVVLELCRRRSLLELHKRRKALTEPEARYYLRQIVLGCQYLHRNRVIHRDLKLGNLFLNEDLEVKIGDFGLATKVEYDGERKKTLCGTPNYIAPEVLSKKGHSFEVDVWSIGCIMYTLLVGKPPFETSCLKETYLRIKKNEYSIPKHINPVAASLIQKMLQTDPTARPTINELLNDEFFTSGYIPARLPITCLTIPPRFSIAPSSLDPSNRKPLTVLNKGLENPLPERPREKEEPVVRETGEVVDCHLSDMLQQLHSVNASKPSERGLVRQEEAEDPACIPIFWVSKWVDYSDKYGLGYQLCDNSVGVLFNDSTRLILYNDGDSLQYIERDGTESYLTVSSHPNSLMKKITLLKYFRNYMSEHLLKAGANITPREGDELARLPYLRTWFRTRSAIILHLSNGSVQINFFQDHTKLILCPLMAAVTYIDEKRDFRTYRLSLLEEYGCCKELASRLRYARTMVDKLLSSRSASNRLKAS

Biological target: Serine/threonine-protein kinase PLK1 (Homo sapiens) (UniProt P53350)
Assay: qHTS for Inhibitors of PLK1-PDB (polo-like kinase 1 - polo-box domain): Primary Screen; also: nearly all actives have a fitted effect of over 65% in size; as to max response, negative = inhibition: series mostly up to about 57 µM
Details: Plk1 PBD binding of FITC phosphopeptide, fluorescence polarization
% is scaled to controls: 0 for no effect and ±100 for the full control effect; potency is read from the fitted curve at half-maximal effect.

Structure (SMILES) | Potency | max response, negative = inhibition
O=C(O)C(=O)/C(=C\c1ccc(Cl)cc1)c1ccc2ccccc2n1 | inconclusive: 33.6 µM [inhibitor, partial curve] | –
O=C(N/N=C/c1coc2ccccc2c1=O)c1cc(Br)ccc1O | inconclusive: 29.9 µM [inhibitor, single point] | –
CC[C@@H]1Cc2[nH][nH]c(=O)c2[C@H](c2ccc(Cl)cc2)O1 | inconclusive: 23.8 µM [inhibitor, single point] | –
CCCn1c(N)c(C(=O)CSc2nc(C)nc3sc(C)c(C)c23)c(=O)[nH]c1=O | – | inconclusive: -31.3% [inhibitor]
O=C1C2C(c3ccccc3)CC=CC2[C@H](c2ccc3ccccc3c2)N1Cc1ccccc1 (stereo partly specified) | – | inconclusive: -36.2% [inhibitor]
COc1ccc(/C=C2/CCC(CN3CCOCC3)C2=O)cc1 (stereo unspecified) | active: 5.32 µM | –
CCC/C=C1/CCCOC(C(=O)NCc2ccc(C)o2)(C(F)(F)F)C1 (stereo unspecified) | inconclusive: 26.7 µM [inhibitor, partial curve] | –
Nn1c(=S)[nH]c2sc3c(c2c1=O)CCCC3 | inconclusive: 29.9 µM [inhibitor, single point] | –
Cc1nccc(-c2ccc(-n3cnc4ccccc43)cc2)n1 | inconclusive: 26.7 µM [inhibitor, partial curve] | –
Cc1cc(NC(=O)CSc2ccc(Cl)cc2)no1 | active: 5.32 µM | –
COc1ccc(NC(=O)CSc2ccc(NC(C)=O)cc2)cc1S(=O)(=O)N1CCOCC1 | inconclusive: 33.6 µM [inhibitor, partial curve] | –
N#Cc1c(-c2ccccc2)cc(-c2cccs2)nc1SCC(=O)O | active: 26.7 µM | –
CCCCN(C(=O)CC1CCCC1)c1c(N)n(Cc2ccccc2)c(=O)[nH]c1=O | – | inactive: -3.36%
CS/C(N)=N/N=C/c1cc(C)ccc1O | – | inconclusive: -26% [inhibitor]
Cc1ccc(C)c(OCCC(=O)Nc2ccc3c(c2)OCO3)c1 | – | inactive: 4.49%
CC1=C(Nc2ccc(C(=O)O)cc2)C(=O)c2ccccc2C1=O | inconclusive: 21.2 µM [inhibitor, single point] | –
O=C(NCc1ccc(OC(F)(F)F)cc1)C1CC2Cn3c(nc4ccccc43)C2N1c1ccccc1 (stereo unspecified) | – | inactive: -16.7%
O=C(Nn1c(SCc2ccc([N+](=O)[O-])cc2)nc2ccccc2c1=O)c1ccc(F)cc1 | – | inactive: -14.4%
CNC(=S)Nc1ccc(-c2nc3ccc(C)cc3s2)cc1 | inconclusive: 33.6 µM [inhibitor, partial curve] | –
O=P(c1ccccc1)(c1ccccc1)N(c1ccccc1)c1ccccc1 | – | inactive: 5.14%
CCOc1ccc(C(=O)Nc2cc(C)ccn2)cc1 | active: 2.99 µM | –
O=C(COC(=O)CSc1ccc([N+](=O)[O-])cc1)NCCc1ccccc1 | inconclusive: 29.9 µM [inhibitor, partial curve] | –
N#Cc1sc2nc(-c3ccccc3)cc(-c3ccco3)c2c1N | inconclusive: 11.9 µM [inhibitor, partial curve] | –
Cc1cc(NC(=O)CSCc2ccccc2)no1 | – | inactive: -15.5%

Structure (SMILES) | Potency | max response, negative = inhibition
Cc1ccc(S(=O)(=O)N2CCOCC2)cc1C(=O)N1C(=O)c2cccc(N)c2C1=O | inconclusive: 18.9 µM [inhibitor, partial curve] | –
O=C(NCC1CCCO1)Nc1ccccc1 (stereo unspecified) | – | inactive: -4.17%
NS(=O)(=O)c1ccc(CCNC(=O)COC(=O)CCSc2ccc(Cl)cc2)cc1 | inconclusive: 29.9 µM [inhibitor, partial curve] | –
C=C(C)C(=O)O[C@H]1C/C(C)=C\C(=O)/C=C(\C)[C@H](O)[C@@H]2OC(=O)C(=C)[C@@H]21 | inconclusive: 23.8 µM [inhibitor, partial curve] | –
COCCNC(=S)N/N=C/c1c2ccccc2cc2ccccc12 | inconclusive: 26.7 µM [inhibitor, single point] | –
COCn1c(-c2ccc(OC)cc2)nc2ccccc21 | inconclusive: 37.7 µM [inhibitor, single point] | –
O=C(O)c1cc(-c2ccc(N3CCOCC3)cc2)nn1-c1ccccc1Cl | – | inactive: -24%
O=c1c2cc(Br)ccc2[nH]c(=S)n1Cc1ccccn1 | inconclusive: 7.52 µM [inhibitor, partial curve] | –
S=C(NCCN1CCOCC1)Nc1ccc(-c2nc3ccccc3[nH]2)cc1 | inconclusive: 21.2 µM [inhibitor, single point] | –
Oc1ccc(Br)cc1/C=N/n1c(-c2ccccc2)n[nH]c1=S | inconclusive: 33.6 µM [inhibitor, partial curve] | –
O=C(O)c1ccc(NC(=S)NC(=O)c2ccc3ccccc3c2)cc1 | inconclusive: 33.6 µM [inhibitor, single point] | –
COc1cc(-c2nnc(SCC(=O)N3CCOCC3)o2)cc(OC)c1OC | inconclusive: 33.6 µM [inhibitor, single point] | –
C=CCOC(=O)C(=O)/C=C/c1ccc2c(c1)Cc1ccccc1-2 | inconclusive: 15 µM [inhibitor, single point] | –
O=C(CSc1nnc(COc2ccccc2)n1Cc1ccco1)NCc1ccco1 | inconclusive: 26.7 µM [inhibitor, single point] | –
COC(=O)N/N=C/c1ccc(-c2cc(Cl)cc(Cl)c2)o1 | – | inactive: -0.564%
O=C(CSc1ncnc2scc(-c3ccc(Cl)cc3)c12)NCc1ccc2c(c1)OCO2 | – | inactive: 3.76%
CN(C)C(=O)Nc1ccccc1CC[N+](=O)[O-] | – | inactive: -10.7%
CC(NO)C(C)(C)NO (stereo unspecified) | – | inactive: 1.39%
CC1=C(C(=O)OCc2ccccc2)C(c2ccc(-c3ccccc3)cc2)NC(=O)N1CCCCCC(=O)O (stereo unspecified) | inconclusive: 37.7 µM [inhibitor, single point] | –
COc1ccc(C(=O)C2CCCN(Cc3cccn3-c3ccc(Cl)cn3)C2)c(OC)c1 (stereo unspecified) | – | inactive: -1.03%
S=C(Nc1ccc2nsnc2c1)N1CCCCCC1 | inconclusive: 29.9 µM [inhibitor, single point] | –
Cc1cc(C)c(NC(=O)CSc2nnc(-c3ccncc3)n2Cc2ccco2)c(C)c1 | – | inactive: -8.76%
O=C(O)C[C@H]1c2cc(C(F)(F)F)ccc2S(=O)(=O)N1C1CCN(Cc2ccccc2)CC1 | – | inconclusive: -36.2% [inhibitor]
COc1cc(/C=C/c2ccc3c(Br)cc(Br)c(O)c3n2)ccc1O | active: 23.8 µM | –

Grouped by structure, the compounds so far containing a nitro group on carbon.
Structure (SMILES) | Potency | max response, negative = inhibition
O=C(Nn1c(SCc2ccc([N+](=O)[O-])cc2)nc2ccccc2c1=O)c1ccc(F)cc1 | – | inactive: -14.4%
O=C(COC(=O)CSc1ccc([N+](=O)[O-])cc1)NCCc1ccccc1 | inconclusive: 29.9 µM [inhibitor, partial curve] | –
CN(C)C(=O)Nc1ccccc1CC[N+](=O)[O-] | – | inactive: -10.7%

Carrying on.

Structure (SMILES) | Potency | max response, negative = inhibition
O=C(CSc1nnc(-c2cccnc2)o1)Nc1cccc(Cl)c1 | inconclusive: 23.8 µM [inhibitor, partial curve] | –
CCOC(=O)Nc1ccc2c(c1)N(C(=O)OCCN(C)C)c1ccccc1CC2 | inconclusive: 23.8 µM [inhibitor, single point] | inconclusive: -32.9% [inhibitor]
CCCCCn1nc(-c2ccccc2)c2nc3ccccc3nc21 | active: 21.2 µM | –
CCN(CC)S(=O)(=O)c1ccc(N(C)CCc2ccc(OC)c(OC)c2)nc1 | inconclusive: 21.2 µM [inhibitor, single point] | –
Cn1cnc([N+](=O)[O-])c1S(=O)(=O)Oc1ccccc1 | inconclusive: 7.52 µM [inhibitor, partial curve] | –
CC12C(=O)N(c3ccccn3)C(=O)C1C1C=CC2C1 (stereo unspecified) | active: 29.9 µM | –
CCNC(=S)Nc1ccc(OCc2nc3ccccc3s2)cc1 | active: 9.47 µM | –
C[C@H]1CN([C@@H](C)CO)C(=O)c2cccc(NC(=O)c3cnccn3)c2O[C@@H]1CN(C)S(=O)(=O)c1ccc(F)cc1 | inconclusive: 16.8 µM [inhibitor, partial curve, poor fit] | –
C[n+]1cccc2c(Br)ccc([O-])c21 | inconclusive: 16.8 µM [inhibitor, partial curve] | –
Cc1cc(Sc2ncnc(N)c2[N+](=O)[O-])ncn1 | inconclusive: 8.44 µM [inhibitor, partial curve] | –
CC1CCCN(C2=C(NS(=O)(=O)c3ccc(Cl)cc3)C(=O)c3ccccc3C2=O)C1 (stereo unspecified) | inconclusive: 47.4 µM [inhibitor, partial curve] | –
O=C(COC(=O)CSc1ccc([N+](=O)[O-])cc1)NC1CCCCCCC1 | active: 23.8 µM | –
COc1ccccc1CNC(=O)CCc1nnc2ccc(NCCCN3CCCC3=O)nn12 | active: 21.2 µM | –
CCCS(=O)(=O)NC(=O)C1(C)CCN(C(=O)c2ccc(F)cc2Cl)C1 (stereo unspecified) | – | inactive: 4.24%
CC1(c2nnc(-c3ccc(Cl)cc3)o2)CC(c2ccc(Cl)cc2)=NO1 (stereo unspecified) | – | inactive: -14.2%
CCCN(CCC)S(=O)(=O)c1ccc(C(=O)Nc2ccc(S(=O)(=O)Nc3nnc(CC)s3)cc2)cc1 | inconclusive: 37.7 µM [inhibitor, single point] | –
O=C(O)C1Nc2c(O)cc(Cl)c([N+](=O)[O-])c2C2C=CCC12 (stereo unspecified) | active: 2.99 µM | –
O=C1NN(c2ccccc2)C(=O)/C1=C\c1cccn1-c1ccc(Cl)c([N+](=O)[O-])c1 | inconclusive: 23.8 µM [inhibitor, partial curve] | –
CCOC(=O)CSc1nnc2n(Cc3ccccc3)c(=O)c3c4c(sc3n12)CCC4 | inconclusive: 18.9 µM [inhibitor, single point] | –
N#CCSCC(=O)Nc1ccc(Cl)cc1 | inconclusive: 16.8 µM [inhibitor, partial curve] | –
Cc1ccc(O)c(N=Nc2ccc(S(=O)(=O)N3CCOCC3)cc2)c1 | – | inactive: -6.11%
Cc1ccc(S(=O)(=O)N2CCOCC2)cc1C(=O)NCc1cccs1 | inconclusive: 18.9 µM [inhibitor, single point] | –
